Laboratory results taken from publication PMC9684302.
These are yes or no findings as the source states them, for the method shown. Binding seen in cells or lysates may run through a third protein. Here binding means that the protein was enriched with, or labelled near, the bait; the list need not be complete. For part of these data: A no says only that the protein was not detected with the bait.

By UniProt entry, the sequences of proteins in these tests, tags left out. Where a name states a change or a piece, a line headed by the entry shows the natural chain unless it says otherwise.
UniProt Q16637: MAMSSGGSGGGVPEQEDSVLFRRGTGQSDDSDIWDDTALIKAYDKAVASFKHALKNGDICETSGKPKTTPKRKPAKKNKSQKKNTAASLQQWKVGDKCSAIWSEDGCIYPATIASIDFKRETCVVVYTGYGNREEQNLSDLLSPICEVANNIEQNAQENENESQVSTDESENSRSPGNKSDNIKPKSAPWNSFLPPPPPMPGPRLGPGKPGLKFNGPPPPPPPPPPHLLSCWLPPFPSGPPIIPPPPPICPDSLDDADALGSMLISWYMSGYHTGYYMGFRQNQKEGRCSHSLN
UniProt Q9BUR4: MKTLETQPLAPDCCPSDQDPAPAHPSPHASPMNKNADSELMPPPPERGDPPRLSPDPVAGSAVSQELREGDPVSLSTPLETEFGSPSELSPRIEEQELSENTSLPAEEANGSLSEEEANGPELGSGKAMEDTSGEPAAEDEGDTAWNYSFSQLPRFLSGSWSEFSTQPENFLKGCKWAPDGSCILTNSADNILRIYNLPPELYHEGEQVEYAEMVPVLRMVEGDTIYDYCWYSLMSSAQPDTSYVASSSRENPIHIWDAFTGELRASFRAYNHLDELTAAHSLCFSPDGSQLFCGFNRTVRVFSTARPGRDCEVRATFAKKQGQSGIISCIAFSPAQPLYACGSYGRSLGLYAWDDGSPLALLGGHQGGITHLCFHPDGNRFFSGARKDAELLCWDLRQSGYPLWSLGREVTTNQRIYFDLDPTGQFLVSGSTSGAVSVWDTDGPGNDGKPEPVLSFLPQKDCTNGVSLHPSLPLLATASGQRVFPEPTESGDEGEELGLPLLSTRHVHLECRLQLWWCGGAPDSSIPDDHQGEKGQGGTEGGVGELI
UniProt O14893: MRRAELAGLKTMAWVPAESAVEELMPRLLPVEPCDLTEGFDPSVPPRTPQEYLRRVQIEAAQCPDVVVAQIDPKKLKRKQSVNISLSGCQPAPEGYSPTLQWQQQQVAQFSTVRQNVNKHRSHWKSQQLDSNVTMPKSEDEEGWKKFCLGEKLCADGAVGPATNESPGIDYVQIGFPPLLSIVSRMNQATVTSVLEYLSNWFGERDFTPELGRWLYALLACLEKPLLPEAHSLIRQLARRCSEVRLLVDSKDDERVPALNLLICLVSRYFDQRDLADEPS
UniProt Q8WXD5: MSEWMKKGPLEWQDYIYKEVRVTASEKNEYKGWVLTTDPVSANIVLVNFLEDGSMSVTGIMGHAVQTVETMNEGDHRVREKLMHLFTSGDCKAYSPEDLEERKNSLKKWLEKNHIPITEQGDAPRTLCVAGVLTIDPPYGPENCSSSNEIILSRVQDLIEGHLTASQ
UniProt O60573: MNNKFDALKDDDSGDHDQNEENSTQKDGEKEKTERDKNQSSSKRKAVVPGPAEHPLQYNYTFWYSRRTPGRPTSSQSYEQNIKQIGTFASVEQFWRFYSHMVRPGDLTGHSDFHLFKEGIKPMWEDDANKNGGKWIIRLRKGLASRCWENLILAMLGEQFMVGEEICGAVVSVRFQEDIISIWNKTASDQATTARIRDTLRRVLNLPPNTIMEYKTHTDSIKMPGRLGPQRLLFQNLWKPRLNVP
UniProt Q9UKV8: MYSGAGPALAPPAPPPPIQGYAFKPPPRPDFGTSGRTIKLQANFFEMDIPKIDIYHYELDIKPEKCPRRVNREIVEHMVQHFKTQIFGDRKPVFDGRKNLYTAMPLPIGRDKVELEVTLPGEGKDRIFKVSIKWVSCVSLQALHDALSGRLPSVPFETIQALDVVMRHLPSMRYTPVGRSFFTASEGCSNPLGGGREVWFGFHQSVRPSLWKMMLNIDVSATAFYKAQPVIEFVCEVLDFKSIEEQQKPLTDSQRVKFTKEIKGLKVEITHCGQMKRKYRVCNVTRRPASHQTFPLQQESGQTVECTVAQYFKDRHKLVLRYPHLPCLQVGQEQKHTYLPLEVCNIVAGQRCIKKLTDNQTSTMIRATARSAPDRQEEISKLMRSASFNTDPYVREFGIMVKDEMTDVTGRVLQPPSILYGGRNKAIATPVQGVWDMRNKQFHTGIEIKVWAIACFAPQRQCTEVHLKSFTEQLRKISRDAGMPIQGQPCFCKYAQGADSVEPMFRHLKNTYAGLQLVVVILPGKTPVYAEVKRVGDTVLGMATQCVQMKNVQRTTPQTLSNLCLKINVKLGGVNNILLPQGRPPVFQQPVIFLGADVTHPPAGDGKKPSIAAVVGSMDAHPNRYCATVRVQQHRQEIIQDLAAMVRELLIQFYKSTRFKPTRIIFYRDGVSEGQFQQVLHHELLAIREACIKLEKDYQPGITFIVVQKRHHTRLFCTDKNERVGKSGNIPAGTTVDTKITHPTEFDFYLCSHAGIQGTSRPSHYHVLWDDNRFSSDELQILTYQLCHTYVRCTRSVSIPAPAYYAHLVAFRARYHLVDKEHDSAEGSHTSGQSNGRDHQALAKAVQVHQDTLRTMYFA
UniProt Q01844: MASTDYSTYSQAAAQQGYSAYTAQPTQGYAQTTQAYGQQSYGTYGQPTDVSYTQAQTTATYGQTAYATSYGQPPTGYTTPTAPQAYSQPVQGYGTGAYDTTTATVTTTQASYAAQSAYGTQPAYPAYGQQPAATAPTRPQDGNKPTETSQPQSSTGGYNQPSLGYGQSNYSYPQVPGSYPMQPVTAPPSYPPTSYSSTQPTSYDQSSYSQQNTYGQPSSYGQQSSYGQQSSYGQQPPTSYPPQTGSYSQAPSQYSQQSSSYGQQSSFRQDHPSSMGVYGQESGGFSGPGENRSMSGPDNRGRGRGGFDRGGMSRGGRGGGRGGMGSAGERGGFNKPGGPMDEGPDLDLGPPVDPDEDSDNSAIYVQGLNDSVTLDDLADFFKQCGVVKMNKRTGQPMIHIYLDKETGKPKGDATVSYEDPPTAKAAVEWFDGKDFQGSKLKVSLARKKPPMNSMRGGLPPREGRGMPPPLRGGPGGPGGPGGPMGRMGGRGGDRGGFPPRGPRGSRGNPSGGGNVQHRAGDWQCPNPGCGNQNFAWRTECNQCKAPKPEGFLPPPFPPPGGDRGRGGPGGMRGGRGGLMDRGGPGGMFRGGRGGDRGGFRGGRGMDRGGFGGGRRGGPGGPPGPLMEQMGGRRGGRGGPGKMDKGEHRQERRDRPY
UniProt P06730: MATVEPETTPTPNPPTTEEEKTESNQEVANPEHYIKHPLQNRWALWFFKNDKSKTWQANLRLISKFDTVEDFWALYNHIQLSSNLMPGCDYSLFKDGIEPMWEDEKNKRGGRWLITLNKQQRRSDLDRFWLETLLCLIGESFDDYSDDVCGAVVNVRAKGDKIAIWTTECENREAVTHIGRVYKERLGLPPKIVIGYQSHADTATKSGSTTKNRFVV
UniProt P51114: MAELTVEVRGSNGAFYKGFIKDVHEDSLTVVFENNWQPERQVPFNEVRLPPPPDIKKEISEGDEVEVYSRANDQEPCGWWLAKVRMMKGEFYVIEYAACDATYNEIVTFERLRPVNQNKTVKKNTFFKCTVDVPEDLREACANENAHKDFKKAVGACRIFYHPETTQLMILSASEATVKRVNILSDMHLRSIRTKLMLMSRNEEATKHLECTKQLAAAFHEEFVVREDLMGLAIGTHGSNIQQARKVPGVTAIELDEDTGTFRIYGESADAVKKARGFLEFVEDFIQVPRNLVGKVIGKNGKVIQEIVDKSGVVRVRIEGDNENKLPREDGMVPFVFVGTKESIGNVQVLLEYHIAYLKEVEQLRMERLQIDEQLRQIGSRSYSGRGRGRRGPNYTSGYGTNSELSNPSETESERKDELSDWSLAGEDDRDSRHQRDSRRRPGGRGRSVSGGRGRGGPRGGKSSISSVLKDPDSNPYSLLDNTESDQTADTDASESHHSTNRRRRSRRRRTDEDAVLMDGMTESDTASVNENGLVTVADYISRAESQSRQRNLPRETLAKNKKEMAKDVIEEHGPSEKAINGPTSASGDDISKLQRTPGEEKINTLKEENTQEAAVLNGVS
UniProt O75420: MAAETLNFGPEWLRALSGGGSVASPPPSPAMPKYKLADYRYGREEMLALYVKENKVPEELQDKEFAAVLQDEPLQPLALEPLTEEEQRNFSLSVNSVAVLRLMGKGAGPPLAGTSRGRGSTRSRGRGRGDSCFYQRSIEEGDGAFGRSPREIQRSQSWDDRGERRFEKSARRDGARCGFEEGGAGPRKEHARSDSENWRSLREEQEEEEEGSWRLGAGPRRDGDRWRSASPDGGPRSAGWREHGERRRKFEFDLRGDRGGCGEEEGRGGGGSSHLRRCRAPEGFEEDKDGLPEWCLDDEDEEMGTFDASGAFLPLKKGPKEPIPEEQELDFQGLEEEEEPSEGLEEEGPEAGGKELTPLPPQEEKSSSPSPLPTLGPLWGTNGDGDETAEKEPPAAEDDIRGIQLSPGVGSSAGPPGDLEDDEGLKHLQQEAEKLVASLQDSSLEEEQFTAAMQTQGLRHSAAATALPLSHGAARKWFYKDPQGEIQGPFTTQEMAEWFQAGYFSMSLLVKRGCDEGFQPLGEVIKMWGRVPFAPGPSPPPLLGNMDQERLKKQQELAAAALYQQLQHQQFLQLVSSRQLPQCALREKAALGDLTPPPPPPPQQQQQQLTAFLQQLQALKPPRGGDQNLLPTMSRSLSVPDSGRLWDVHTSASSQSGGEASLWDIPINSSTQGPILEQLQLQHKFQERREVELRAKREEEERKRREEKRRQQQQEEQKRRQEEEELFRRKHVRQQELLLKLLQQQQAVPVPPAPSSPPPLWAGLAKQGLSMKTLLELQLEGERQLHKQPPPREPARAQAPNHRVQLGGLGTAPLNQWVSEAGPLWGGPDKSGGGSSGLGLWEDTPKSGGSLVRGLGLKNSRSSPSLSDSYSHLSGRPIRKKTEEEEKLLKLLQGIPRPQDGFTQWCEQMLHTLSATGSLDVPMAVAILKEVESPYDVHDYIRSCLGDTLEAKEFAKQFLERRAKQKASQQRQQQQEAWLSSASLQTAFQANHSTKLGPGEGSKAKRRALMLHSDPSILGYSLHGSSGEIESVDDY
UniProt P38432: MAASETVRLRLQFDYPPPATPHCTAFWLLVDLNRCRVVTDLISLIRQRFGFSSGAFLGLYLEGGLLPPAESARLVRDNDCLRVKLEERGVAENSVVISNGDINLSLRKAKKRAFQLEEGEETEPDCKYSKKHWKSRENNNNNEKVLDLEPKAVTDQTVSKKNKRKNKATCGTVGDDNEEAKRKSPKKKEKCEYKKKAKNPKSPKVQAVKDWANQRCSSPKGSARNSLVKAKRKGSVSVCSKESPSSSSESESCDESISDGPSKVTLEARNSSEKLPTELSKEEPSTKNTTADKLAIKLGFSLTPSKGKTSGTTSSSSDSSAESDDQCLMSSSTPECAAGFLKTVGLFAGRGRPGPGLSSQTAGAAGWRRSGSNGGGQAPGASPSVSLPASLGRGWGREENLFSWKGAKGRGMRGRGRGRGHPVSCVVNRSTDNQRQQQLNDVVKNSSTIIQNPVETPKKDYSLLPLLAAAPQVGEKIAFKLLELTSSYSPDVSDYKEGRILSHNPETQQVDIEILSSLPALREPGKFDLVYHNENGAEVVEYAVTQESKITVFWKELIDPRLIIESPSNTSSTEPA
UniProt Q9BRJ7: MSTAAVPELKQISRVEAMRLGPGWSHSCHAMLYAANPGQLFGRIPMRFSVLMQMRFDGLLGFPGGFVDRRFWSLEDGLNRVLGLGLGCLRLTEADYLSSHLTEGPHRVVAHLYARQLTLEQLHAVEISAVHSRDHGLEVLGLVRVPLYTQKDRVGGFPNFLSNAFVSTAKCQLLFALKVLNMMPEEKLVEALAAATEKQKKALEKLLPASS
UniProt P35637: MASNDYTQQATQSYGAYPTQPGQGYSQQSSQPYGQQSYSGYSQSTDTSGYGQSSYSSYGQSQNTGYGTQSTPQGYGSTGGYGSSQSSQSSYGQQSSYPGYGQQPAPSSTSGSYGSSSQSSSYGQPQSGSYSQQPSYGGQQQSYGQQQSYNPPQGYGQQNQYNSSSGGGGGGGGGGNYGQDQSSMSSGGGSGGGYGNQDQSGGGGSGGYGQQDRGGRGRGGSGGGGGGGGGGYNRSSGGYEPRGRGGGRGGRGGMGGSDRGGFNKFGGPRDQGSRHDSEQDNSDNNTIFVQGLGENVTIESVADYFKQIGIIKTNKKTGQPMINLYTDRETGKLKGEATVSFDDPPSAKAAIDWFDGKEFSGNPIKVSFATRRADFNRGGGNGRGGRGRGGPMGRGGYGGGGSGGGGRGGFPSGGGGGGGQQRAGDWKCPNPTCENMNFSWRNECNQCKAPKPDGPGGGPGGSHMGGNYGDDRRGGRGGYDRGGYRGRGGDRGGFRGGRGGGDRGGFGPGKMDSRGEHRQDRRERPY
UniProt Q9H840: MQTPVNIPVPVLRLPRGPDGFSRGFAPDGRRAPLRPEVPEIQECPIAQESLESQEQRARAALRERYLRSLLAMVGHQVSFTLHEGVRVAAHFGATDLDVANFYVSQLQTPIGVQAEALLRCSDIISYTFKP

How the values were obtained:
[1] = target: MYC-BirA-SMN (human) (UniProt Q16637); test: proximity labelling; BioID in stably transduced HEK293T (BirA, BirA-SMN, BirA-SMN Y109C), streptavidin-Sepharose, label-free quantitative mass spectrometry, triplicate; BirA-SMN compared with BirA alone and with BirA-SMN Y109C
[2] = target: MYC-BirA-SMN3YA (aromatic cage Y109A/Y127A/Y130A triple mutant) (human) (UniProt Q16637); test: proximity labelling; BioID: MYC-tagged BirA constructs transfected in HEK293T, doxycycline 1 µg/ml and biotin 50 µM for 24 h; biotinylated endogenous proteins pulled down with streptavidin-Sepharose, immunoblot
[3] = target: MYC-BirA-SMN_(Y109C) (human) (UniProt Q16637); test: as above
[4] = target: MYC-BirA-SMN_(E134K) (human) (UniProt Q16637); test: as above
[5] = target: MYC-BirA-SMN (human) (UniProt Q16637); test: proximity labelling; BioID: FLAG-tagged candidates co-expressed with MYC-BirA or MYC-BirA-SMN in HEK293T, doxycycline and biotin; biotinylated proteins purified on streptavidin-Sepharose, immunoblot
[6] = target: MYC-BirA-SMN (human) (UniProt Q16637); test: proximity labelling; BioID: MYC-tagged BirA constructs transfected in HEK293T, doxycycline 1 µg/ml and biotin 50 µM for 24 h; biotinylated endogenous proteins pulled down with streptavidin-Sepharose, immunoblot

binding [1] | Substance | further results
binds | WRAP53 (from UniProt Q9BUR4 1-548) | –
binds | PRMT5 (from UniProt O14744 1-637) (enzyme) | –
binds | GEMIN3 (from UniProt Q9UHI6 1-824) | –
binds | GEMIN2 (from UniProt O14893 1-280) | binding [6]: binds; binding [2]: binds; binding [3]: binds; binding [4]: binds
binds | GEMIN6 (from UniProt Q8WXD5 1-167) | –
binds | eIF4E2 (from UniProt O60573 1-245) | –
binds | AGO2 (from UniProt Q9UKV8 1-859) | –
binds | EWSR1 (from UniProt Q01844 1-656) | –
binds | eIF4E (from UniProt P06730 1-217) | –

The remaining lines, values behind:

Substance | binding [1] | further results
fragile X-related protein 1 (FXR1), endogenous (from UniProt P51114 1-621) | binds | –
FOCAD (from UniProt Q5VW36 1-1801) | binds | –
GIGYF1 (from UniProt O75420 1-1035) | binds | –
GEMIN5 (from UniProt Q8TEQ6 1-1508) | binds | –
COILIN (from UniProt P38432 1-576) | – | binding [2]: no binding; binding [3]: binds weakly; binding [4]: binds weakly
FLAG-TIRR (from UniProt Q9BRJ7 1-211) | – | binding [5]: no binding
FUS (from UniProt P35637 1-526) | binds | –
GEMIN7 (from UniProt Q9H840 1-131) | binds | –
FLAG-FXR1 (from UniProt P51114 1-621) | – | binding [5]: binds
